Data as given in PubChem BioAssay AID1259405 (NCATS, 2018).
Shown is one part, drawn at random, of about 50,000 reagents tested. About 4,000 of all reagents (8%) were called active. 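Mouse siRNA library applied to hamster cells; one well for each siRNA.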 Entries without a mark were called inactive. Reagents against one gene are numbered here.

Assay: 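Silenced genes that increase secreted GFP made by CHO cells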 (primary screen)
System: Chinese hamster CHO-K1 ovary cells with stable secreted eGFP expression
Knock-down reagent: single siRNA against mouse genes, 0.8 pmol siRNA per well (2 µl of 400 nM stock)
Timing: 3 days
Detection: 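Per-well intracellular GFP measured by laser scanning cytometry, plus viability from ATP luminescence, each relative to plate median of non-targeting control wells, in %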
Direction: GFP, % of control: higher = more GFP per well, higher productivity; viability (ATP), % of control: higher = more viable cells (more ATP)
Active means: 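a knock-down is called active if GFP reaches 120% or more of non-targeting control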

gene | reagent no. | GFP, % of control | viability (ATP), % of control
Rnf152 (ring finger protein 152) | 1 | 101 | 82.5
Rnf152 (ring finger protein 152) | 2 | 82.2 | 74.4
Rnf152 (ring finger protein 152) | 3 | 129 (active) | 111
Pde4dip (phosphodiesterase 4D interacting protein (myomegalin)) | 1 | 91.9 | 65.3
Pde4dip (phosphodiesterase 4D interacting protein (myomegalin)) | 2 | 159 (active) | 114
Pde4dip (phosphodiesterase 4D interacting protein (myomegalin)) | 3 | 102 | 107
Pde4dip (phosphodiesterase 4D interacting protein (myomegalin)) | 4 | 102 | 81.1
Pde4dip (phosphodiesterase 4D interacting protein (myomegalin)) | 5 | 57.7 | 51.7
Pde4dip (phosphodiesterase 4D interacting protein (myomegalin)) | 6 | 51.1 | 62.9
Pde4dip (phosphodiesterase 4D interacting protein (myomegalin)) | 7 | 54.5 | 56.8
Pde4dip (phosphodiesterase 4D interacting protein (myomegalin)) | 8 | 52.3 | 107
Pde4dip (phosphodiesterase 4D interacting protein (myomegalin)) | 9 | 99.9 | 104
Megf10 (multiple EGF-like-domains 10) | 1 | 97.1 | 106
Megf10 (multiple EGF-like-domains 10) | 2 | 71.6 | 60.7
Megf10 (multiple EGF-like-domains 10) | 3 | 92.9 | 84.8
Impdh2 (inosine monophosphate dehydrogenase 2) | 1 | 59.4 | 51.9
Impdh2 (inosine monophosphate dehydrogenase 2) | 2 | 80.4 | 108
Impdh2 (inosine monophosphate dehydrogenase 2) | 3 | 60.8 | 81.4
Tmem230 (transmembrane protein 230) | 1 | 66.6 | 38.7
Tmem230 (transmembrane protein 230) | 2 | 52.4 | 70.4
Tmem230 (transmembrane protein 230) | 3 | 83.9 | 80.2
2410002F23Rik (RIKEN cDNA 2410002F23 gene) | 1 | 70.1 | 77.5
2410002F23Rik (RIKEN cDNA 2410002F23 gene) | 2 | 81.6 | 75.4
2410002F23Rik (RIKEN cDNA 2410002F23 gene) | 3 | 89.6 | 84.5
Sh3tc1 (SH3 domain and tetratricopeptide repeats 1) | 1 | 39.9 | 60.3
Sh3tc1 (SH3 domain and tetratricopeptide repeats 1) | 2 | 53.2 | 37.2
Sh3tc1 (SH3 domain and tetratricopeptide repeats 1) | 3 | 71.7 | 80.6
Ptbp3 (polypyrimidine tract binding protein 3) | 1 | 62.5 | 95.9
Ptbp3 (polypyrimidine tract binding protein 3) | 2 | 77.3 | 93.7
Rrm2 (ribonucleotide reductase M2) | 1 | 74.9 | 30.5
Rrm2 (ribonucleotide reductase M2) | 2 | 81.4 | 42.5
Rfk (riboflavin kinase) | 1 | 48.4 | 58.7
Rfk (riboflavin kinase) | 2 | 60.1 | 68.7
Rfk (riboflavin kinase) | 3 | 77 | 74.8
Atp5pd (ATP synthase peripheral stalk subunit d) | 1 | 54.4 | 47.7
Atp5pd (ATP synthase peripheral stalk subunit d) | 2 | 185 (active) | 117
Atp5pd (ATP synthase peripheral stalk subunit d) | 3 | 78.5 | 86.7
Tapt1 (transmembrane anterior posterior transformation 1) | 1 | 71.9 | 81.2
Tapt1 (transmembrane anterior posterior transformation 1) | 2 | 103 | 89.5
Tapt1 (transmembrane anterior posterior transformation 1) | 3 | 79.7 | 65.6
Prpsap2 (phosphoribosyl pyrophosphate synthetase-associated protein 2) | 1 | 118 | 93
Engase (endo-beta-N-acetylglucosaminidase) | 1 | 78.9 | 130
Engase (endo-beta-N-acetylglucosaminidase) | 2 | 69.4 | 49
Engase (endo-beta-N-acetylglucosaminidase) | 3 | 85.1 | 96.6
Nxnl2 (nucleoredoxin-like 2) | 1 | 97 | 69.3
Nxnl2 (nucleoredoxin-like 2) | 2 | 59.9 | 59.9
Nxnl2 (nucleoredoxin-like 2) | 3 | 68.3 | 99.2
Kcnh1 | 1 | 75.2 | 80.7
Kcnh1 | 2 | 24.6 | 41.2
Kcnh1 | 3 | 79.1 | 36.3
Adam26a (ADAM metallopeptidase domain 26A) | 1 | 75 | 92.9
Adam26a (ADAM metallopeptidase domain 26A) | 2 | 64.2 | 71.2
Adam26a (ADAM metallopeptidase domain 26A) | 3 | 59.1 | 84.5
Ambn (ameloblastin) | 1 | 77.4 | 72.1
Ambn (ameloblastin) | 2 | 109 | 71.7
Ambn (ameloblastin) | 3 | 91.4 | 73.3
Set (SET nuclear proto-oncogene) | 1 | 61.6 | 49.5
Set (SET nuclear proto-oncogene) | 2 | 45.5 | 46.6
Set (SET nuclear proto-oncogene) | 3 | 128 (active) | 91.3
Chst8 (carbohydrate sulfotransferase 8) | 1 | 93.9 | 99.8
Chst8 (carbohydrate sulfotransferase 8) | 2 | 83.2 | 114
Chst8 (carbohydrate sulfotransferase 8) | 3 | 92.8 | 139
Ltf (lactotransferrin) | 1 | 98 | 86.8
Ltf (lactotransferrin) | 2 | 52.9 | 42.2
Ltf (lactotransferrin) | 3 | 55.2 | 53.5
Smad9 (SMAD family member 9) | 1 | 39.1 | 63.1
Smad9 (SMAD family member 9) | 2 | 83.2 | 77
Smad9 (SMAD family member 9) | 3 | 149 (active) | 39.6
Or51a39 (olfactory receptor family 51 subfamily A member 39) | 1 | 53.5 | 52.1
Or51a39 (olfactory receptor family 51 subfamily A member 39) | 2 | 86.2 | 65.3
Or51a39 (olfactory receptor family 51 subfamily A member 39) | 3 | 40.3 | 87.1
Ccnq (cyclin Q) | 1 | 141 (active) | 82.8
Ccnq (cyclin Q) | 2 | 62.3 | 73.5
Ccnq (cyclin Q) | 3 | 109 | 92.5
1700055D18Rik (RIKEN cDNA 1700055D18 gene) | 1 | 77.9 | 75.2
1700055D18Rik (RIKEN cDNA 1700055D18 gene) | 2 | 72.3 | 46.8
1700055D18Rik (RIKEN cDNA 1700055D18 gene) | 3 | 70.8 | 71.5
Mmp2 (matrix metallopeptidase 2) | 1 | 67.2 | 101
Mmp2 (matrix metallopeptidase 2) | 2 | 55.8 | 67.1
Veph1 (ventricular zone expressed PH domain-containing 1) | 1 | 200 (active) | 62.8
Veph1 (ventricular zone expressed PH domain-containing 1) | 2 | 27.1 | 16.2
Veph1 (ventricular zone expressed PH domain-containing 1) | 3 | 79.8 | 71.1
H2ac1 (H2A clustered histone 1) | 1 | 40.2 | 75.3
H2ac1 (H2A clustered histone 1) | 2 | 81 | 105
H2ac1 (H2A clustered histone 1) | 3 | 53.3 | 51.5
Swi5 (SWI5 recombination repair homolog (yeast)) | 1 | 43 | 65
Swi5 (SWI5 recombination repair homolog (yeast)) | 2 | 55.3 | 70.2
Swi5 (SWI5 recombination repair homolog (yeast)) | 3 | 71.8 | 76.4
Grm1 (glutamate receptor, metabotropic 1) | 1 | 66.5 | 85.6
Grm1 (glutamate receptor, metabotropic 1) | 2 | 90.2 | 85.2
Grm1 (glutamate receptor, metabotropic 1) | 3 | 51.3 | 63.9
Nhej1 (non-homologous end joining factor 1) | 1 | 66.1 | 68.5
Nhej1 (non-homologous end joining factor 1) | 2 | 74.3 | 109
Nhej1 (non-homologous end joining factor 1) | 3 | 33.1 | 57
Rsph1 (radial spoke head 1 homolog (Chlamydomonas)) | 1 | 54.2 | 84.3
Rsph1 (radial spoke head 1 homolog (Chlamydomonas)) | 2 | 60.1 | 84.9
Rsph1 (radial spoke head 1 homolog (Chlamydomonas)) | 3 | 104 | 93.3
Scn2b (sodium channel, voltage-gated, type II, beta) | 1 | 109 | 87.4
Scn2b (sodium channel, voltage-gated, type II, beta) | 2 | 74.6 | 59.4
Scn2b (sodium channel, voltage-gated, type II, beta) | 3 | 370 (active) | 111
Strip2 (striatin interacting protein 2) | 1 | 58.5 | 83
Strip2 (striatin interacting protein 2) | 2 | 65.6 | 60.1
Strip2 (striatin interacting protein 2) | 3 | 55.5 | 50
Triqk (triple QxxK/R motif containing) | 1 | 72.1 | 64.6
Triqk (triple QxxK/R motif containing) | 2 | 76.1 | 101
Triqk (triple QxxK/R motif containing) | 3 | 78.8 | 89.4
Apoc3 (apolipoprotein C-III) | 1 | 36.3 | 16.8
Apoc3 (apolipoprotein C-III) | 2 | 247 (active) | 96.6
Apoc3 (apolipoprotein C-III) | 3 | 63.3 | 73.5

Records listed above marked active:
gene | reagent no. | GFP, % of control | viability (ATP), % of control
Rnf152 (ring finger protein 152) | 3 | 129 (active) | 111
Pde4dip (phosphodiesterase 4D interacting protein (myomegalin)) | 2 | 159 (active) | 114
Atp5pd (ATP synthase peripheral stalk subunit d) | 2 | 185 (active) | 117
Set (SET nuclear proto-oncogene) | 3 | 128 (active) | 91.3
Smad9 (SMAD family member 9) | 3 | 149 (active) | 39.6
Ccnq (cyclin Q) | 1 | 141 (active) | 82.8
Veph1 (ventricular zone expressed PH domain-containing 1) | 1 | 200 (active) | 62.8
Scn2b (sodium channel, voltage-gated, type II, beta) | 3 | 370 (active) | 111
Apoc3 (apolipoprotein C-III) | 2 | 247 (active) | 96.6
